{"source": "patent US5449752A", "about": "(Seikagaku Kogyo K.K., priority 1991, dated 1995)", "assay": "general procedure: Fmoc solid-phase peptide synthesis; DMBHA resin; DIPCDI-HOBt", "settings": "whole synthesis, calculated based on the protecting group-protected polypeptide (1) resin, scale 0.2 mmole", "note": "Strings that start with PEPTIDE1 are HELM notation: dots part the residues, brackets hold end groups and non-standard residues.", "data": [{"substance": "PEPTIDE1{R.R.W.C.Y.R.K.C.Y.K.G.Y.C.Y.R.K.C.R.[am]}$PEPTIDE1,PEPTIDE1,4:R3-17:R3|PEPTIDE1,PEPTIDE1,8:R3-13:R3$$$V2.0", "values": [{"measurement": "isolated yield", "result": 27, "unit": "%"}]}]}
